In PMC12591160, “Polyadenylation Complex CFII Recognizes Downstream Cis‐element for Pre‐mRNA Polyadenylation Through Interaction with an RNA‐Binding Protein in Arabidopsis”:
These are yes or no findings as the source states them, for the method shown. In cells and extracts the contact can be indirect. Here binding means that the protein was enriched with, or labelled near, the bait; the list need not be complete. Sequences can lack the tags named with a protein.

T1: PCFS4-MYC (PCFS4 with 12× MYC, native promoter, in PCFS4-MYCres transgenic plants) (Arabidopsis thaliana) (UniProt Q0WPF2)
T1 sequence: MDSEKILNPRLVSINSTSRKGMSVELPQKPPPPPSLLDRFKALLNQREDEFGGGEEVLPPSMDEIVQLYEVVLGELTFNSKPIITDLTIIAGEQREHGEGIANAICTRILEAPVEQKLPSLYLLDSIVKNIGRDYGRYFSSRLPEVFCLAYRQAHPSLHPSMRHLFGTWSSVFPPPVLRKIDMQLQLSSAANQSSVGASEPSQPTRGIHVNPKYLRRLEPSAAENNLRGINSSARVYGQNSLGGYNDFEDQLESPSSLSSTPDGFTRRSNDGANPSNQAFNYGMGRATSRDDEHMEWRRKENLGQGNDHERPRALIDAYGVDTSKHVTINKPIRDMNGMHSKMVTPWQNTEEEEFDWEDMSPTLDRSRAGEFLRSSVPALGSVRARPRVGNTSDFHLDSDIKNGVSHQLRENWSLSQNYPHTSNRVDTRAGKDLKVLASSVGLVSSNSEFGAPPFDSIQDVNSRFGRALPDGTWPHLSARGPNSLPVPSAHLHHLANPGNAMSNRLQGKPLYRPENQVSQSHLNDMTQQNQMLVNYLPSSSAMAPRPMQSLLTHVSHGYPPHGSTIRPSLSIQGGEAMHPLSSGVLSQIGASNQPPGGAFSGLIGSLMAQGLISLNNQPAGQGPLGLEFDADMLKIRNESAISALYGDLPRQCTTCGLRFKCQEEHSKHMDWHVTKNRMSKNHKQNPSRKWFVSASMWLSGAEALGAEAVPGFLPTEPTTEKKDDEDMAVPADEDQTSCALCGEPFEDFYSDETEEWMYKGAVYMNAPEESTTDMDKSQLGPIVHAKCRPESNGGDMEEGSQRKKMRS

T2: FPA-MYC (FPA with 9× MYC, native promoter, in FPA-MYCres transgenic plants) (Arabidopsis thaliana) (UniProt Q8LPQ9)
T2 sequence: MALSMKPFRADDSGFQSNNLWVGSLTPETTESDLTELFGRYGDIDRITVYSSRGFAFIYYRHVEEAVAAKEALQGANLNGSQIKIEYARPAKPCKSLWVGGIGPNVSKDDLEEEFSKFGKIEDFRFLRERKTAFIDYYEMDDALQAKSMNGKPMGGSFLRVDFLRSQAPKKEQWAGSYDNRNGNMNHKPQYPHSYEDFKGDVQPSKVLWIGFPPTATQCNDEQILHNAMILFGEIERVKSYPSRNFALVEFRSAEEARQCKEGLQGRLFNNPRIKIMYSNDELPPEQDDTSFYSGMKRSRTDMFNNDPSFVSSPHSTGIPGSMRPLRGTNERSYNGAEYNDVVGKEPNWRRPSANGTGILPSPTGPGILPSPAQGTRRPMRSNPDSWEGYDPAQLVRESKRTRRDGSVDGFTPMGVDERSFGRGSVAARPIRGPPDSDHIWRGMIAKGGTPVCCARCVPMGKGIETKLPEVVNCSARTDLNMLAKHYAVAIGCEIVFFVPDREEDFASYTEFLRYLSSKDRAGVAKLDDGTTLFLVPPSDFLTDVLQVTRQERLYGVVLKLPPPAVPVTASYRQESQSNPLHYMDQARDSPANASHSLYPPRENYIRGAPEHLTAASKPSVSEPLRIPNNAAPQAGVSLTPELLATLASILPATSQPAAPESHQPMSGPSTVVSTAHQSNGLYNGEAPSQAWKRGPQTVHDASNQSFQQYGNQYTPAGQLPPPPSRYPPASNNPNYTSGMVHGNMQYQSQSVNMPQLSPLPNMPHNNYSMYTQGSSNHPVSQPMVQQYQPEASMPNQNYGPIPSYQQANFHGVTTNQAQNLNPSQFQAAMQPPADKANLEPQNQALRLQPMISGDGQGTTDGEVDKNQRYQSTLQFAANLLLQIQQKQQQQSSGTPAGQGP


How the values were obtained:
[1] = target: T1, PCFS4-MYC (PCFS4 with 12× MYC, native promoter, in PCFS4-MYCres transgenic plants) (Arabidopsis thaliana); assay: affinity purification with mass spectrometry; 12-day-old PCFS4-MYCres or FPA-MYCres plants cross-linked in 1% formaldehyde; nuclear lysate on anti-Myc magnetic beads; low-salt, high-salt (500 mM NaCl), LiCl and Tris washes; LC-MS/MS; wild-type plants as negative control
[2] = target: T2, FPA-MYC (FPA with 9× MYC, native promoter, in FPA-MYCres transgenic plants) (Arabidopsis thaliana); assay: as above

Row | binding [1] | binding [2] | Binder
1 | binds |  | CLPS3 (endogenous, Arabidopsis plants) (protein, UniProt Q9SR06 1-444) MAYGGPSMNPPALSGAVPGSANLKQVKLERESELRIEVSEEPLRLRVVNGTAEIFGSELPPEIWRTFPPRMKFAVFTWYGATIEMDGVTETDYTADETPMVSYINVHAILDARRRFAKASTSNDPESSQGPRVIVVGPTDSGKSTLTKMLLSWAAKQGWRPTFVDLDVGQGSITIPGSIAAAPIEMPLDPVEGFPLDMALVYYYGHASPNMNVELYKALVKELAQVLEKQFVGNPESRAAGMVINTMGWIEGIGYELLLHAIDTFNASVVLVLGQEKLFSRLKDVLRSKSNVDVVKLHKSGGVVARVKEVRKRSRNFKIQEYFYGLSKELSPYANTSSFSDLQVFRIGGGPQAPKSALPAGSTSVSNPLRVTPVNIDDRDLLHSVLAVSYAEEPDQIISSNVSGFVYVTEVNVQKKKITYLAPSPGTLPSKLLVAGSLAWLESV
2 | binds |  | FPA (endogenous, Arabidopsis plants) (protein, UniProt Q8LPQ9 1-901) MALSMKPFRADDSGFQSNNLWVGSLTPETTESDLTELFGRYGDIDRITVYSSRGFAFIYYRHVEEAVAAKEALQGANLNGSQIKIEYARPAKPCKSLWVGGIGPNVSKDDLEEEFSKFGKIEDFRFLRERKTAFIDYYEMDDALQAKSMNGKPMGGSFLRVDFLRSQAPKKEQWAGSYDNRNGNMNHKPQYPHSYEDFKGDVQPSKVLWIGFPPTATQCNDEQILHNAMILFGEIERVKSYPSRNFALVEFRSAEEARQCKEGLQGRLFNNPRIKIMYSNDELPPEQDDTSFYSGMKRSRTDMFNNDPSFVSSPHSTGIPGSMRPLRGTNERSYNGAEYNDVVGKEPNWRRPSANGTGILPSPTGPGILPSPAQGTRRPMRSNPDSWEGYDPAQLVRESKRTRRDGSVDGFTPMGVDERSFGRGSVAARPIRGPPDSDHIWRGMIAKGGTPVCCARCVPMGKGIETKLPEVVNCSARTDLNMLAKHYAVAIGCEIVFFVPDREEDFASYTEFLRYLSSKDRAGVAKLDDGTTLFLVPPSDFLTDVLQVTRQERLYGVVLKLPPPAVPVTASYRQESQSNPLHYMDQARDSPANASHSLYPPRENYIRGAPEHLTAASKPSVSEPLRIPNNAAPQAGVSLTPELLATLASILPATSQPAAPESHQPMSGPSTVVSTAHQSNGLYNGEAPSQAWKRGPQTVHDASNQSFQQYGNQYTPAGQLPPPPSRYPPASNNPNYTSGMVHGNMQYQSQSVNMPQLSPLPNMPHNNYSMYTQGSSNHPVSQPMVQQYQPEASMPNQNYGPIPSYQQANFHGVTTNQAQNLNPSQFQAAMQPPADKANLEPQNQALRLQPMISGDGQGTTDGEVDKNQRYQSTLQFAANLLLQIQQKQQQQSSGTPAGQGP
3 |  | binds | PCFS4 (endogenous, Arabidopsis plants) (protein, UniProt Q0WPF2 1-808) MDSEKILNPRLVSINSTSRKGMSVELPQKPPPPPSLLDRFKALLNQREDEFGGGEEVLPPSMDEIVQLYEVVLGELTFNSKPIITDLTIIAGEQREHGEGIANAICTRILEAPVEQKLPSLYLLDSIVKNIGRDYGRYFSSRLPEVFCLAYRQAHPSLHPSMRHLFGTWSSVFPPPVLRKIDMQLQLSSAANQSSVGASEPSQPTRGIHVNPKYLRRLEPSAAENNLRGINSSARVYGQNSLGGYNDFEDQLESPSSLSSTPDGFTRRSNDGANPSNQAFNYGMGRATSRDDEHMEWRRKENLGQGNDHERPRALIDAYGVDTSKHVTINKPIRDMNGMHSKMVTPWQNTEEEEFDWEDMSPTLDRSRAGEFLRSSVPALGSVRARPRVGNTSDFHLDSDIKNGVSHQLRENWSLSQNYPHTSNRVDTRAGKDLKVLASSVGLVSSNSEFGAPPFDSIQDVNSRFGRALPDGTWPHLSARGPNSLPVPSAHLHHLANPGNAMSNRLQGKPLYRPENQVSQSHLNDMTQQNQMLVNYLPSSSAMAPRPMQSLLTHVSHGYPPHGSTIRPSLSIQGGEAMHPLSSGVLSQIGASNQPPGGAFSGLIGSLMAQGLISLNNQPAGQGPLGLEFDADMLKIRNESAISALYGDLPRQCTTCGLRFKCQEEHSKHMDWHVTKNRMSKNHKQNPSRKWFVSASMWLSGAEALGAEAVPGFLPTEPTTEKKDDEDMAVPADEDQTSCALCGEPFEDFYSDETEEWMYKGAVYMNAPEESTTDMDKSQLGPIVHAKCRPESNGGDMEEGSQRKKMRS
